# Source: patent US12150933B2, “IL-8 inihibitors for use in the treatment of some urological disorders” (DOMPÉ FARMACEUTICI S.P.A., priority 2015, dated 2024)
# Tested on: CYP-induced visceral pain
# Assay: Chronic administration in CYP-induced visceral pain in rats (Von Frey withdrawal threshold)
# Type: in vivo, rat
# Settings: 3 mg/kg s.c.
# Description: Cyclophosphamide, 75 mg/kg i.p. for 3 times, every 3rd day, was dissolved in distilled water and administered to animals by i.p. route (volume 5 mL/kg). Appropriate weight of Compd. 1 or Compd. 2 was dissolved in saline, all doses of test compounds were administered by oral gavage (volume 2 mL/kg).
# On the day of the experiment, each rat was placed individually in a clear plastic testing box with a grid floor and allowed to acclimatize for at least 10 min. Visceral sensitivity in response to mechanical stimuli was determined using Von Frey monofilaments (1-2-4-8-15-26-60-100 g) applied in the lower abdominal area (close to the urinary bladder) and on both hind paws plantar surface (to evaluate referred pain).
# Each Von Frey monofilament was applied 5 times at the level of abdomen and 3 times at the level of each paw, in an ascending order of strength at interval of 5 sec. A stimulus-induced response was considered positive when the paw was sharply withdrawn, paw licking occurred, or the animal flinched upon removal of the filament. […]
# Repeated treatment with CYP (75 mg/kg i.p. for 3 times, every 3rd day), induces a strong decrease in withdrawal thresholds to noxious stimulus measured at the level of low abdomen and hind-paws.
# Compd. […] Nociceptive hypersensitivity was evaluated about 18 hours after the last administration of Compd. […]
structure (smiles),measurement,value
"CN1CC[C@]23c4c5ccc(O)c4O[C@H]2[C@@H](O)C=C[C@H]3[C@H]1C5 [morphine, reference compound]",side effects,"marked and well known side effects (sedation, respiratory effects)"
